Patent US6133443A, “Optically active 1,4-dihydropyridine derivatives and process for the preparation thereof” (Mercian Corporation, priority 1996, dated 2000)

Assay: physchem
Conditions: deionized water

COC(=O)C1=C(C)NC(C)=C(C(=O)OC)C1c1ccccc1[N+](=O)[O-] [nifedipine, reference compound]
solubility at 0.05 h: ≤ 100 µg/mL
